Data published in patent US20040072743A1 (priority 2000, published 2004).

Test: general procedure: Boc solid-phase peptide synthesis; MBHA resin (loading 100 μmol/g); HBTU/DIEA (peptide part); HATU/DIEA (PNA monomers)
Conditions: whole synthesis, scale of the general procedure 50 mg resin

KFFKFFKFFK-b.ala-cha-ACTTTGTCGCCA-NH2
final purity (method not given): 98%
